Results as given in PMC11879112.
The exact form of at least one protein or probe is not confirmed. At least one verdict rests on a figure or table, not on a statement of the authors. Tags and fusion partners may be left off the protein sequences shown.

Target: T1, FASTKD4 (purified) (Homo sapiens) (UniProt Q969Z0)
T1 sequence (looked up): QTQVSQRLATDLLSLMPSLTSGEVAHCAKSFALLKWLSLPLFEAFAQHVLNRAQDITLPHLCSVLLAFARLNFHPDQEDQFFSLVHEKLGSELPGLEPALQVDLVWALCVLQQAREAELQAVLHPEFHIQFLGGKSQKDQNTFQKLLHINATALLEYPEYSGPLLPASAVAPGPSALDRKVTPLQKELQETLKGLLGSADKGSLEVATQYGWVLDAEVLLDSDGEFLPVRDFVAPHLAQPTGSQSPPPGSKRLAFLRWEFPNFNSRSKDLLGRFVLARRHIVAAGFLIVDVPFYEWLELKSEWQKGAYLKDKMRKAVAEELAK
Test: EMSA
Conditions: EMSA: 10 mM HEPES pH 8.0, 1 mM EDTA, 50 mM KCl, 2 mM DTT, 0.1 mg/ml fatty acid-free BSA, 0.02% Tween-20, room temperature 30 min, 6% PAGE in TAE; recombinant protein; residues 309-631; protein details: MBP (modified pET-MBP, Ni-column purified); label: 5' FAM

Sequence: CAAAAAGGAUUAGACUGAACCGAAUAAAAAAAAAAAAAAAAAAAAAAAAA [ND3-polyA-RNA]
- binding result: binds
